For three molecules, binding results are on record in article PMC3900104.

These are yes or no findings as the source states them, for the method shown. In cells and extracts the contact can be indirect. Some results given as binding are weak or reduced against the parent protein; the word gives no strength. For some assays here: Sequences can lack the tags named with a protein.

In experiment [1] the target is T1, FLAG-tagged TRAK1 (trafficking-protein-Kinesin-binding-1), aa 2-953, in COS7 (human) (UniProt Q9UPV9).
T1 sequence: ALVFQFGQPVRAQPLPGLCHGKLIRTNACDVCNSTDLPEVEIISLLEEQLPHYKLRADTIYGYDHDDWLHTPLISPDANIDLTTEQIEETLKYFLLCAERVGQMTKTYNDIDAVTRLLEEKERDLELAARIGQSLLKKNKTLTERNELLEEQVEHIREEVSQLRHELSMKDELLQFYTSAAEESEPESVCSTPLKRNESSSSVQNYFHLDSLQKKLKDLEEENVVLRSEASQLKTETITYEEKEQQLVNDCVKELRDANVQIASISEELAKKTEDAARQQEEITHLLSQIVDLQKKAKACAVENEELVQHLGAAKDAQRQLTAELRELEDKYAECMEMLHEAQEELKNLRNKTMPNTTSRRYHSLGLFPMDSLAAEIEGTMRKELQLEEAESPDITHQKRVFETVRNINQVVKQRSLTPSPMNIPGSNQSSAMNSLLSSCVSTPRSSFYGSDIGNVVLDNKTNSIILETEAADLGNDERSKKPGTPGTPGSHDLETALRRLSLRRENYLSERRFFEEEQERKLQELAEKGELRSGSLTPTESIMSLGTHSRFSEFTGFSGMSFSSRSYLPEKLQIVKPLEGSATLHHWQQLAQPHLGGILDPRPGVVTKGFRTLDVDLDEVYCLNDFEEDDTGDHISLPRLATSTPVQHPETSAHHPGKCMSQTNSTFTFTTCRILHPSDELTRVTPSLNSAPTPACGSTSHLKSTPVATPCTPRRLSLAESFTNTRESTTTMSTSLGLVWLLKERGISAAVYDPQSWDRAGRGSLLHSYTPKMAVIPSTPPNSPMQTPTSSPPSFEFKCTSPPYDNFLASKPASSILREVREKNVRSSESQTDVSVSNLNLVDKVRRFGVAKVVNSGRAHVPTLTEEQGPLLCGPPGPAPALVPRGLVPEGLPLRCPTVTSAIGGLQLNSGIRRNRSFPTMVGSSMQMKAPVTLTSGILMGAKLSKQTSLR
Description: co-IP; as the FLAG IP of FLAG-TRAK1 plus Myc-DISC1 or Myc-DISC1-37W, but with high-speed lysates (Fig. S2).

Experiment [2] concerns the target T2, endogenous TRAK1 of HEK293 cells (human (endogenous in HEK293)) (UniProt Q9UPV9).
T2 sequence: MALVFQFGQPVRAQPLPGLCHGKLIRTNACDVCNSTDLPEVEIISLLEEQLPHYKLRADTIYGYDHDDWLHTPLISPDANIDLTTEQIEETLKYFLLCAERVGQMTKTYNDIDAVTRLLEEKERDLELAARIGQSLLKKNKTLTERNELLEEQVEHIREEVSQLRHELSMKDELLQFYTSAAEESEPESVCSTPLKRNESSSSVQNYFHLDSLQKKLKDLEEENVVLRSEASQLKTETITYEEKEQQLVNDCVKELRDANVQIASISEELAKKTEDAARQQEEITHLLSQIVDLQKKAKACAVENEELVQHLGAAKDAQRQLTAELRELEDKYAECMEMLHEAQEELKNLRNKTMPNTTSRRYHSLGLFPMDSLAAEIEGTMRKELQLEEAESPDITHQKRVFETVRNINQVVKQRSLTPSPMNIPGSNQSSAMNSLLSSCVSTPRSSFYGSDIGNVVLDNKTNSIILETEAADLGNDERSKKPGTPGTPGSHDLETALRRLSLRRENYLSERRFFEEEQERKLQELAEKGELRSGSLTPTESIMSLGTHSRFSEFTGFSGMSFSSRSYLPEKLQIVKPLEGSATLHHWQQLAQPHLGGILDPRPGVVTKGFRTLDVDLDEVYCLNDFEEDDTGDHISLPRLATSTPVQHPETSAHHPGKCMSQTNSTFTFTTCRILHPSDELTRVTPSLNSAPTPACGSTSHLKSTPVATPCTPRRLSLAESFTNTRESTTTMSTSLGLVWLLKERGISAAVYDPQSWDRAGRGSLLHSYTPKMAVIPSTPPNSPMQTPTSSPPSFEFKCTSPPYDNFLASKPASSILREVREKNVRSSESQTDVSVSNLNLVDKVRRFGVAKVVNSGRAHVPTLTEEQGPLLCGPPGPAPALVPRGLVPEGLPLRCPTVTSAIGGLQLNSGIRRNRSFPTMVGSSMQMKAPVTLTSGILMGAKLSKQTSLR
Kind of experiment: co-IP; non-transfected HEK293 or SH-SY5Y cells; IP with TRAK1 antibody; endogenous proteins.

In experiment [3] the target is T2, endogenous TRAK1 of HEK293 cells (human (endogenous in HEK293)). Kind of experiment: co-IP; non-transfected HEK293 or SH-SY5Y cells; more stringent protocol, lysates centrifuged at 100 000g; IP with TRAK1 antibody; identity of the DISC1 band confirmed by DISC1 siRNA in HEK293.
Experiment [4] deals with T3, endogenous TRAK1 of SH-SY5Y cells (human (endogenous in SH-SY5Y)) (UniProt Q9UPV9).
T3 sequence: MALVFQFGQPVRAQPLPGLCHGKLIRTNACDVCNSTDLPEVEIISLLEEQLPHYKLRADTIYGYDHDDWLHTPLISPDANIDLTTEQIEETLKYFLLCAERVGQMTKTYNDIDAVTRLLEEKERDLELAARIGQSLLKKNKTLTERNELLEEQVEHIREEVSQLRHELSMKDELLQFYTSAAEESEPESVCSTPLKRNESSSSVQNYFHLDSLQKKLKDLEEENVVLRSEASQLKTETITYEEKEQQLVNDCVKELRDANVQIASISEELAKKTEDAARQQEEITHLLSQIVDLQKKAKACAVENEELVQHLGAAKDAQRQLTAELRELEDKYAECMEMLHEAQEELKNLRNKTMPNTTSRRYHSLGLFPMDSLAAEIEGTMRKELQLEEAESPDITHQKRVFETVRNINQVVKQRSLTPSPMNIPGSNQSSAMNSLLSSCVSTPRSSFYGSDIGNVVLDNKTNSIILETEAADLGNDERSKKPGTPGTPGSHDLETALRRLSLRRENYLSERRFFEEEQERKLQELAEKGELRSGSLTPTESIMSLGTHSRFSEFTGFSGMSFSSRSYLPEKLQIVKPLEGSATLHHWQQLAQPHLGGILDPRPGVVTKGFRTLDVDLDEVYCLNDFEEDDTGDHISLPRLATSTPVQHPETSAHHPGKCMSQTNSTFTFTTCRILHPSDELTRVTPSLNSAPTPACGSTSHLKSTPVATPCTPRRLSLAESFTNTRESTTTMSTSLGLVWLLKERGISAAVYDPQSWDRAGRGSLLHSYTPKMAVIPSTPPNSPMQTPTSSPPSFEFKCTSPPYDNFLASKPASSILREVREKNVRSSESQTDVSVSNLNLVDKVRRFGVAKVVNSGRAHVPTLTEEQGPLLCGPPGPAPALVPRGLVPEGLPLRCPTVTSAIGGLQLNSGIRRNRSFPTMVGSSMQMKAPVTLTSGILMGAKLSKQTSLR
Description: co-IP; non-transfected HEK293 or SH-SY5Y cells; IP with TRAK1 antibody; endogenous proteins.

Experiment [5] has as its target T3, endogenous TRAK1 of SH-SY5Y cells (human (endogenous in SH-SY5Y)). Kind of experiment: co-IP; non-transfected HEK293 or SH-SY5Y cells; more stringent protocol, lysates centrifuged at 100 000g; IP with TRAK1 antibody; identity of the DISC1 band confirmed by DISC1 siRNA in HEK293.

B1: Myc-DISC1-37W (protein, UniProt Q9NRI5 1-854)
chain: MPGGGPQGAPAAAGGGGVSHRAGSRDCLPPAACFRRWRLARRPGYMRSSTGPGIGFLSPAVGTLFRFPGGVSGEESHHSESRARQCGLDSRGLLVRSPVSKSAAAPTVTSVRGTSAHFGIQLRGGTRLPDRLSWPCGPGSAGWQQEFAAMDSSETLDASWEAACSDGARRVRAAGSLPSAELSSNSCSPGCGPEVPPTPPGSHSAFTSSFSFIRLSLGSAGERGEAEGCPPSREAESHCQSPQEMGAKAASLDGPHEDPRCLSRPFSLLATRVSADLAQAARNSSRPERDMHSLPDMDPGSSSSLDPSLAGCGGDGSSGSGDAHSWDTLLRKWEPVLRDCLLRNRRQMEVISLRLKLQKLQEDAVENDDYDKAETLQQRLEDLEQEKISLHFQLPSRQPALSSFLGHLAAQVQAALRRGATQQASGDDTHTPLRMEPRLLEPTAQDSLHVSITRRDWLLQEKQQLQKEIEALQARMFVLEAKDQQLRREIEEQEQQLQWQGCDLTPLVGQLSLGQLQEVSKALQDTLASAGQIPFHAEPPETIRSLQERIKSLNLSLKEITTKVCMSEKFCSTLRKKVNDIETQLPALLEAKMHAISGNHFWTAKDLTEEIRSLTSEREGLEGLLSKLLVLSSRNVKKLGSVKEDYNRLRREVEHQETAYETSVKENTMKYMETLKNKLCSCKCPLLGKVWEADLEACRLLIQSLQLQEARGSLSVEDERQMDDLEGAAPPIPPRLHSEDKRKTPLKVLEEWKTHLIPSLHCAGGEQKEESYILSAELGEKCEDIGKKLLYLEDQLHTAIHSHDEDLIQSLRRELQMVKETLQAMILQLQPAKEAGEREAAASCMTAGVHEAQA
With B1, the binding entry in experiment [1] was “binds”.

B2: endogenous 100 kDa full-length DISC1 of HEK293 cells (protein, UniProt Q9NRI5 1-854)
chain: MPGGGPQGAPAAAGGGGVSHRAGSRDCLPPAACFRRRRLARRPGYMRSSTGPGIGFLSPAVGTLFRFPGGVSGEESHHSESRARQCGLDSRGLLVRSPVSKSAAAPTVTSVRGTSAHFGIQLRGGTRLPDRLSWPCGPGSAGWQQEFAAMDSSETLDASWEAACSDGARRVRAAGSLPSAELSSNSCSPGCGPEVPPTPPGSHSAFTSSFSFIRLSLGSAGERGEAEGCPPSREAESHCQSPQEMGAKAASLDGPHEDPRCLSRPFSLLATRVSADLAQAARNSSRPERDMHSLPDMDPGSSSSLDPSLAGCGGDGSSGSGDAHSWDTLLRKWEPVLRDCLLRNRRQMEVISLRLKLQKLQEDAVENDDYDKAETLQQRLEDLEQEKISLHFQLPSRQPALSSFLGHLAAQVQAALRRGATQQASGDDTHTPLRMEPRLLEPTAQDSLHVSITRRDWLLQEKQQLQKEIEALQARMFVLEAKDQQLRREIEEQEQQLQWQGCDLTPLVGQLSLGQLQEVSKALQDTLASAGQIPFHAEPPETIRSLQERIKSLNLSLKEITTKVCMSEKFCSTLRKKVNDIETQLPALLEAKMHAISGNHFWTAKDLTEEIRSLTSEREGLEGLLSKLLVLSSRNVKKLGSVKEDYNRLRREVEHQETAYETSVKENTMKYMETLKNKLCSCKCPLLGKVWEADLEACRLLIQSLQLQEARGSLSVEDERQMDDLEGAAPPIPPRLHSEDKRKTPLKVLEEWKTHLIPSLHCAGGEQKEESYILSAELGEKCEDIGKKLLYLEDQLHTAIHSHDEDLIQSLRRELQMVKETLQAMILQLQPAKEAGEREAAASCMTAGVHEAQA
Take B2: the binding entry in experiment [2] and in experiment [3] was “binds” in each case.

B3: endogenous 100 kDa DISC1 of SH-SY5Y cells (protein, UniProt Q9NRI5 1-854)
chain: MPGGGPQGAPAAAGGGGVSHRAGSRDCLPPAACFRRRRLARRPGYMRSSTGPGIGFLSPAVGTLFRFPGGVSGEESHHSESRARQCGLDSRGLLVRSPVSKSAAAPTVTSVRGTSAHFGIQLRGGTRLPDRLSWPCGPGSAGWQQEFAAMDSSETLDASWEAACSDGARRVRAAGSLPSAELSSNSCSPGCGPEVPPTPPGSHSAFTSSFSFIRLSLGSAGERGEAEGCPPSREAESHCQSPQEMGAKAASLDGPHEDPRCLSRPFSLLATRVSADLAQAARNSSRPERDMHSLPDMDPGSSSSLDPSLAGCGGDGSSGSGDAHSWDTLLRKWEPVLRDCLLRNRRQMEVISLRLKLQKLQEDAVENDDYDKAETLQQRLEDLEQEKISLHFQLPSRQPALSSFLGHLAAQVQAALRRGATQQASGDDTHTPLRMEPRLLEPTAQDSLHVSITRRDWLLQEKQQLQKEIEALQARMFVLEAKDQQLRREIEEQEQQLQWQGCDLTPLVGQLSLGQLQEVSKALQDTLASAGQIPFHAEPPETIRSLQERIKSLNLSLKEITTKVCMSEKFCSTLRKKVNDIETQLPALLEAKMHAISGNHFWTAKDLTEEIRSLTSEREGLEGLLSKLLVLSSRNVKKLGSVKEDYNRLRREVEHQETAYETSVKENTMKYMETLKNKLCSCKCPLLGKVWEADLEACRLLIQSLQLQEARGSLSVEDERQMDDLEGAAPPIPPRLHSEDKRKTPLKVLEEWKTHLIPSLHCAGGEQKEESYILSAELGEKCEDIGKKLLYLEDQLHTAIHSHDEDLIQSLRRELQMVKETLQAMILQLQPAKEAGEREAAASCMTAGVHEAQA
Turning to B3, the binding result in experiment [4] and in experiment [5] was “binds” in each case.
